Laboratory results: PubChem BioAssay AID602196 (INSERM, 2012)
The whole screen tested about 23,000 reagents; below is a random part of them. 455 of them (2%) count as active. 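Active includes both protection and sensitisation; some change values fall well beyond the stated -50 to +50 range.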 A number with no mark means an inactive call. The numbers tell different reagents against one gene apart. The record does not give: the amount of reagent.

- Purpose: 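Modifiers of cisplatin sensitivity in A549 cells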
- System: human A549 lung cancer cells
- Knock-down reagent: siRNA pair against human genes
- Timing: 48 h transfection before cisplatin; time from cisplatin to read-out not stated
- Treatment: cisplatin at a dose killing half of control-siRNA cells; exact dose and duration not given
- Measured: 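Cisplatin cell death as a shift from the 50% death seen with control siRNA; siRNAs toxic or growth-blocking alone scored 0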
- Direction: two-siRNA summed score (-2 to +2): higher = both siRNAs protect from cisplatin killing; -2 means both sensitise; mean protection from cisplatin (shift in death) and protection from cisplatin (shift in death), siRNA C and protection from cisplatin (shift in death), siRNA D: higher = protection from cisplatin killing
- Call rule: 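Each siRNA scores 0 if harmful alone by LDH or WST-1, otherwise +1 if it reduces and -1 if it increases cisplatin killing; a gene is active when both siRNAs agree (sum +2 or -2)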
- Meaning of the calls: active = both siRNAs shift cisplatin killing the same way; inactive = no consistent shift, or siRNA harmful alone

gene	reagent no.	two-siRNA summed score (-2 to +2)	mean protection from cisplatin (shift in death) (%)	protection from cisplatin (shift in death), siRNA C (%)	protection from cisplatin (shift in death), siRNA D (%)
HAPLN2	1	0	7.3	9.2	5.3
TADA3	1	0	8.2	16.3	0
ZNF649	1	0	0.2	0.5	0
APOC3	1	0	-1.8	-4.1	0.5
RASD1	1	0	-6.3	2.2	-14.8
LOC440100	1	1	16.3	10.9	21.7
XRCC3	1	0	-12	-16.3	-7.8
LOC401199	1	0	10.1	11.5	8.7
FST	1	0	-3.6	2.5	-9.7
GPANK1	1	1	8.8	-1.6	19.2
UBAP1	1	0	-7.3	-1.1	-13.4
IFNA17	1	0	2.2	-4.3	8.7
LPAR5	1	-1	-3.3	-16.1	9.4
YY1AP1	1	1	13.7	21.1	6.4
DIRAS1	1	0	3.2	8.8	-2.5
LOC139516	1	1	26.5	36.4	16.6
LOC389896	1	0	-0.5	6	-7
CHN1	1	0	-1.3	8.5	-11.2
DEGS2	1	0	0.6	-2.4	3.6
CTAGE1	1	1	6.1	21.3	-9.2
OR8J1	1	0	0.3	-10	10.6
DHRS13	1	0	7.1	8.1	6.1
PRY	1	0	-0.5	2.8	-3.9
DHRS9	1	-1	-10.7	-17	-4.4
HSD17B8	1	-1	-16.5	-26.9	-6
TSHR	1	0	9.5	8.5	10.4
GCM2	1	0	1.9	10.2	-6.3
GADD45B	1	0	-9	-15.3	-2.7
SLC7A6	1	0	-8.6	3.9	-21.2
LOC139189	1	1	36.6	37.6	35.7
LOC402110	1	1	13.6	15.3	12
MFNG	1	0	-3.4	9.1	-15.8
LOC387872	1	0	13.2	13.7	12.6
GCGR	1	1	9.8	17.1	2.5
ADARB1	1	-1	-7.4	-6.9	-7.8
TEX2	1	0	8.1	10.8	5.3
ZNF174	1	1	-3	-15	9
RHCG	1	0	13	6.6	19.4
ICOSLG	1	0	-1.7	7.3	-10.6
LOC389365	1	0	0.4	-12.1	12.9
LOC203510	1	2 (active)	24.2	12.6	35.8
CCDC148	1	0	12.5	10.4	14.6
LOC442286	1	1	9.6	5.3	13.8
COTL1	1	1	8.4	0.4	16.5
LOC401178	1	0	6.8	15.2	-1.6
MCTS1	1	0	-4.4	-18.5	9.6
LINC01242	1	0	5.5	8.1	3
ADIRF	1	1	2.8	-10.2	15.8
NAA60	1	0	-7.1	-4.3	-10
IYD	1	0	5	4.8	5.2
ERMAP	1	1	21.9	35.5	8.3
PARG	1	0	1.7	0.4	3
SCGB1D2	1	0	5.8	0.7	10.8
XRCC5	1	0	0.3	-6	6.6
MADD	1	1	6.3	15.2	-2.5
LOC440368	1	0	2.1	1.3	2.9
MT1F	1	0	-3.3	2.5	-9.2
MT1F	2	0	12.8	2.7	22.8
